The RNAGym collection of RNA variant scans (doi:10.1126/science.aae0568)
Variants at the floor of the assay are shown more often than the library holds them.

B1: tRNA (parent)
chain: GUUCCGUUGGCGUAAUGGUAACGCGUCUCCCUCCUAAGGAGAAGACUGCGGGUUCGAGUCCCGUACGGAACG

Variants of: B1
Assay: yeast fitness relative to wild type (ratio to wild type); higher = fitter; tRNA-Arg(CCU), competitive growth, 37 C, YPD
In short: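 A pool of Saccharomyces cerevisiae strains, each with a tRNA-Arg(CCU) gene variant at the native genomic locus, was competed in YPD at 37°C for 24 hours across six parallel replicates. The variants had been chemically synthesised at a 3% per-site mutation rate over 69 sites, and gene amplicons before and after competition were read by 100-nucleotide paired-end sequencing. Darwinian fitness relative to wild type rested on changes in genotype frequencies. Genotypes required ≥ 100 starting reads, and estimates < 0.5 were set to 0.5.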

GUUCCGUUGGCAUAAUAGUAACGCGUCUUCCUCCUAAGGAGAAGACUGCGGGUACAAGUCCCGUACGGAACG [G12A G17A C29U U54A G56A] and GUUCCGUUGGCAUAAUGAUAGCGUGUCUUCCUCCUAAGGAGAAGACUGCGGGUUCGUGUCCCGUACGGAACG [G12A G18A A21G C24U C29U A57U] cannot be ordered by yeast fitness: no more than 0.5 for the first, no more than 0.5 for the second.

GUUCCGUUGGCAUAAUGGUAACACGUGUCGCUCCUAAGGAGAAGACUGCGGGUUCGAGUCCCGUACGGAACG [G12A G23A C27G C30G] and GUUCCGUUGGCAUAAUGGUAACGCAUCUCCCUCCUAAGGAGAAGACUGCGGGUUCGAGUCCGGUACGGAACG [G12A G25A C62G] cannot be ordered by yeast fitness: no more than 0.5 for the first, no more than 0.5 for the second.

First: GUUCCGUUGGCAUAAUGGUAACGCGUCUCCCUCCUAACGAGAAGACUGUGGGUUCGAGUCCUGUACGGUACG [G12A G38C C49U C62U A69U]
Second: GUUCCGUUGGCAUAAUGGUAACGCGUCUCCCUCCUAAGGAGAAGACUGCGGGUUCGAGUCCCCUACGGAACG [G12A G63C]
The yeast fitness of the first is higher: 0.973 for the first, 0.704 for the second.

GUUCCGUUGGCAAAAUGGUAACGCGUCUGCCUCCUAAGGAGAGGACUGCGGGUUCGAGUCCCGUACGGAACG [G12A U13A C29G A43G] and GUUCCGUUGGCACAAUGGUAACGCGUGUCCUUCAUAAGGAGAAGACUGCGGGUUCGAGUCCCGUACGGAACG [G12A U13C C27G C31U C34A] cannot be ordered by yeast fitness: no more than 0.5 for the first, no more than 0.5 for the second.

Compared with GUUCCGUUGGCAGAAUGGUAACGCGUCUCCCUCCUAAGGAGAAGACUGCGGGUUCGAGUCCCGUACGGAACG [G12A U13G], GUUCCGUUGGCAGAUUGGUAACGAGUCUACCUGCUAAGGAGAAGACUGCGGCUUAGAGUCCCGUACGGAACG [G12A U13G A15U C24A C29A C33G G52C C55A] is lower in yeast fitness: 0.869 for the first, no more than 0.5 for the second.

GUUCCGUUGGCAGAAUGGUAACCGGUCUGCCUCCUCAGGAGAAGACUGCGGGUUCGAGUUCCGUACGGAACG [G12A U13G G23C C24G C29G A36C C60U] and GUUCCGUUGGCAGAAUGGCAGCGCGUCUCCCUCCUAAGGAGAAGACUGCGGGUUUGAGUCCCGUACGGAACG [G12A U13G U19C A21G C55U] cannot be ordered by yeast fitness: no more than 0.5 for the first, no more than 0.5 for the second.

Going from GUUCCGUUGGCAUAAUGGCAACGCGUCUUCCUCAUAAGGAGAAGACUGCGGGUUCGAGUCCCGUACGGAACG [G12A U19C C29U C34A] to GUUCCGUUGGCAUAAUGGCAACGCGUCUCCCUCGUAAGGAGAAGACUGCGGGUUCGAGUCCCGUAUGGUACG [G12A U19C C34G C66U A69U], the yeast fitness rises from no more than 0.5 to 0.59.

GUUCCGUUGGCAUAAUGGCAACCCGUCUCCCUCCUAAGGAGAAGACUGCGGGUUCGAGUCCCGUACGGAACG [G12A U19C G23C] and GUUCCGUUGGCAUAAUGGGAAUGCGUCUCCUUCCUAAGGUGAAGACUGCGGGUUCGAGUCCCGUACAGAACG [G12A U19G C22U C31U A40U G67A] cannot be ordered by yeast fitness: no more than 0.5 for the first, no more than 0.5 for the second.

GUUCCGUUGGCAUAAUGGUAACGCGUCUCCCCCCUAUGGAGAAGACUGCGGGUACGAGUCCCGUACGGAACG [G12A U32C A37U U54A] and GUUCCGUUGGCAUAAUGGUAACGCGUCUCCCUCCUAAGGAGAAGACAGCGGGUUCGAGUCCCGUACGAAACG [G12A U47A G68A] cannot be ordered by yeast fitness: no more than 0.5 for the first, no more than 0.5 for the second.

GUUCCGUUGGCCUCGUGGUAACGCGUCUCCCUCCUACGGAGAAGACUGCGGGUUCGAGUCCCGUACGGCACG [G12C A14C A15G A37C A69C] and GUUCCGUUGGCCUCGUGGUAACGCGUCUCCCUCCUAAGGAGAAGACUGCGGGUUCGAGUGCCGUACGGAACG [G12C A14C A15G C60G] cannot be ordered by yeast fitness: no more than 0.5 for the first, no more than 0.5 for the second.

GUUCCGUUGGCCUGAUGAUAACGCGUCUCCCUGCUAAGGAGAAGACUGCGGGUUCGAGUCCCGUUCGGAACG [G12C A14G G18A C33G A65U] and GUUCCGUUGGCCUUAUGGUAACGCGACUCCCUCCUAAGGAGAAGACUGCGGGUUCGAGUCCCGUACGGAACG [G12C A14U U26A] cannot be ordered by yeast fitness: no more than 0.5 for the first, no more than 0.5 for the second.

GUUCCGUUGGCCUUAUGGUAACGCGACUCCCUCCUAAGGAGAAGACUGCGGGUUCGAAUCACGUACGGAACG [G12C A14U U26A G58A C61A] and GUUCCGUUGGCCUACUGGUAACGUGUCUCCCUCCUAAGGAGAAGACUGCGGGUUCGAGUCCCGUACGGAACG [G12C A15C C24U] cannot be ordered by yeast fitness: no more than 0.5 for the first, no more than 0.5 for the second.

GUUCCGUUGGCCUAUUGGUAACGAGUCUCCCUCCUAAGGAGAAGACUGCGGGUUCAGGUCCCGUACAGAACG [G12C A15U C24A G56A A57G G67A] and GUUCCGUUGGCCUAAUGGUUACGCGUCUCUCUCCUAAGGAGAAGACUGCGGGUUCGAGUCCAGUACGGACCG [G12C A20U C30U C62A A70C] cannot be ordered by yeast fitness: no more than 0.5 for the first, no more than 0.5 for the second.

GUUCCGUUGGCCUAAUGGUACCGCGUCUCCCUCCUAAGGAGAAGAGUGGGGGUUCGAGUCCCGUACGGAACG [G12C A21C C46G C49G] and GUUCCGUUGGCCUAAUGGUAUCGCGUCUCCCUCUUAAGGAGUAGACUGCGGGUUCGAGUCCCGAACGUAACG [G12C A21U C34U A42U U64A G68U] cannot be ordered by yeast fitness: no more than 0.5 for the first, no more than 0.5 for the second.

GUUCCGUUGGCCUAAUGGUAACGCGUCUCCCUCCUCAGGUGAAGACUGCGGGUUCGAGUCCCGUACGGAACG [G12C A36C A40U] and GUUCCGUUGGCCUAAUGGUAACGCGUCUCCCUCCUUAGGAGAAGACUGCGGGUUUGAGUCCCGUACGGCACG [G12C A36U C55U A69C] cannot be ordered by yeast fitness: no more than 0.5 for the first, no more than 0.5 for the second.

GUUCCGUUGGCCUAAUGGUAACGCGUCUCCCUCCUAGAGAGAAGUCUGCGGGUUCGAGUCCCGUAUGGAACG [G12C A37G G38A A45U C66U] and GUUCCGUUGGCCUAAUGGUAACGCGUCUCCCUCCUAAGGGGAAGACUGCGGGUUCGACUCGCGUCCGGAACG [G12C A40G G58C C61G A65C] cannot be ordered by yeast fitness: no more than 0.5 for the first, no more than 0.5 for the second.

Compared with GUUCCGUUGGCCUAAUGGUAACGCGUCUCCCUCCUAAGGAGGAGACUGCGGGUUCGAGUCCCGUACGGAUCG [G12C A42G A70U], GUUCCGUUGGCCUAAUGGUAACGCGUCUCCCUCCUAAGGAGAAGCCUGCGGGUUCGAGUCACGUACGGAACG [G12C A45C C61A] is higher in yeast fitness: 0.592 for the first, 0.686 for the second.

Compared with GUUCCGUUGGCCUAAUGGUAACGCGUCUCCCUCCUAAGGAGAAGACUGCGGGUUCGAGUCCCGUACGGCUCG [G12C A69C A70U], GUUCCGUUGGCCUAAUGGUAAGACGUCUCCCUCCUAAGGAGAAGACUGCGGGUUAGAGUCCCGUACGGAACG [G12C C22G G23A C55A] is lower in yeast fitness: 0.688 for the first, no more than 0.5 for the second.

GUUCCGUUGGCCUAAUGGUAACGCGUAUCCCUCCUAGGGAGAAGACUGUGGGUUCGAGUCCCGUACGGAACG [G12C C27A A37G C49U] and GUUCCGUUGGCCUAAUGGUAACGCGUAUCCCUCCUAAGGAGAAGACUGCGGGUUCGAGUCCCGUAAGGAACG [G12C C27A C66A] cannot be ordered by yeast fitness: no more than 0.5 for the first, no more than 0.5 for the second.
